Library screening results

Measurements from “University of Dundee, Small-Polar-MMV Screening Library” (2021), ChEMBL document CHEMBL3988442.

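Viability assay of Plasmodium falciparum sporozoites; the read-out is not stated. The concentration is filed as 10 mM, unlikely as a test dose, so the dose is not known. Direction is inferred from retests: higher values go with lower viability. Strong results were mostly tested again. Of about 34,000 compounds tested this way, about 280 (0.84%) reached 50% or more in at least one test.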

Each number is a percent effect as filed. How 0% and 100% were set is not recorded. Most values in the screen are low, and negative values occur. The compounds are a random part of those screened. Two or more numbers in one place are separate tests of the same structure; such repeats can differ widely.

SMILES: Cc1nc(CN2CCCC(Cn3cncn3)C2)no1 (centres unmarked)
Percent Effect: 5.478%

SMILES: CC(=O)Nc1ncc(S(=O)(=O)Nc2cccc(O)c2)s1
Percent Effect: -52.04% and -60.31%

SMILES: CCc1nnc2n1CCN(Cc1nnc(-c3occc3C)o1)C2
Percent Effect: 3.812%

SMILES: FC(F)(F)CCN(Cc1ccon1)C1CCC1
Percent Effect: -4.281%

SMILES: CCc1nnsc1C(=O)NC1CCN(c2ccccn2)CC1
Percent Effect: 5.536%

SMILES: O=C(c1ccsc1)N1CCCC(c2cc(C(F)(F)F)[nH]n2)C1 (centres unmarked)
Percent Effect: -8.883%

SMILES: c1ccc(CCN2CCN(c3ccc4nncn4n3)CC2)nc1
Percent Effect: 3.107%

SMILES: Nc1cc2c(nn1)CCN(C(=O)c1cccnc1Oc1ccccc1)C2
Percent Effect: -14.63%

SMILES: COCCc1noc(CN2CCCC(Cn3nc(C)nc3C)C2)n1 (centres unmarked)
Percent Effect: 8.48%

SMILES: O=C(O)C(F)(F)F.[H][C@@]12CCCO[C@]1([H])[C@H](NC(=O)c1cnccn1)CN(c1ncccn1)C2
Percent Effect: 7.251%

SMILES: O=C(NCCN1CCCS1(=O)=O)c1scnc1Cl
Percent Effect: 1.346%

SMILES: O=C(O)C(F)(F)F.O=C(O)C(F)(F)F.[H][C@@]12CCN(CC3CCOCC3)[C@@]1([H])CCN2Cc1c(C)noc1C
Percent Effect: -6.239%

SMILES: CNC(=O)c1ccc(CN2CCC(N(C)Cc3noc(C)n3)C2)cc1 (centres unmarked)
Percent Effect: -5.087%

SMILES: Cc1cccc(C)c1NC(=O)CCNC(=O)c1ccoc1
Percent Effect: 6.474%

SMILES: CC(C)(C)c1cc(NC(=O)C2COCCO2)n(-c2ccccn2)n1 (centres unmarked)
Percent Effect: 12.6%

SMILES: O=C(c1ccco1)N1Cc2nccn2CC(Cn2ncccc2=O)C1 (centres unmarked)
Percent Effect: 5.565%

SMILES: Cc1csc(CNC(=O)NCc2ccc3c(c2)OCCO3)n1
Percent Effect: 8.473% and -25.74% and -22.46%

SMILES: C=Cc1ccc(CN2CCCC3(CNC(=O)c4ccccc4O3)C2)cc1 (centres unmarked)
Percent Effect: -7.589%

SMILES: COc1ccc2ncn(Cc3ncc[nH]3)c(=O)c2c1
Percent Effect: -4.834%

SMILES: CC(C)c1nc(C2CCCN2C(=O)CCn2cncn2)no1 (centres unmarked)
Percent Effect: -1.057%

SMILES: CC(c1c(F)cccc1F)N1CCN(Cc2nccn2C)CC1 (centres unmarked)
Percent Effect: 7.537%

SMILES: Cc1ccc(NC2CCN(C(=O)c3ccc(C(N)=O)s3)CC2)nn1
Percent Effect: 1.512%

SMILES: Cc1nc(CN2CCCC(N(C)Cc3nnc(C4CC4)o3)C2)no1 (centres unmarked)
Percent Effect: -10.48%

SMILES: COc1c(CNCc2ccc(CN(C)C)cc2)c(C(C)C)nn1C
Percent Effect: -4.452%

SMILES: CCN1Cc2cc(OC)ccc2N(CC(C)(C)O)CCC1=O
Percent Effect: 5.646%

SMILES: CN(C)S(=O)(=O)CCCN1CCCC1c1noc(C2CC2)n1 (centres unmarked)
Percent Effect: 13.97%

SMILES: c1csc(-c2nc(CN3CCOC(Cn4cncn4)C3)cs2)c1 (centres unmarked)
Percent Effect: 44.25% and 56.8% and 40.33%

SMILES: COc1ccccc1C(C#N)NC(=O)c1cccc2c1oc(=O)n2C (centres unmarked)
Percent Effect: -4.71%

SMILES: Cc1nc(NCc2cccnc2)c2c(n1)c(C)nn2C
Percent Effect: -1.309%

SMILES: CCCC(=O)N1CCC([C@@H]2C[C@H](C(F)(F)F)n3nc(C)cc3N2)CC1
Percent Effect: 5.275%

SMILES: CC(C(=O)N1CCCN(Cc2cnn(C)c2)CC1)n1ccnc1 (centres unmarked)
Percent Effect: 8.838%

SMILES: CCOCC(=O)N1CSCC1C(=O)N(C)Cc1ccco1 (centres unmarked)
Percent Effect: 9.512%

SMILES: CCC1CN(C)c2ccccc2CN1C(=O)CCn1cncn1 (centres unmarked)
Percent Effect: -4.412%

SMILES: CN(CCC(=O)N1CCc2sccc2C1)Cc1ccc2c(c1)OCCO2
Percent Effect: 0.03676%

SMILES: CC(C)C(=O)NC1CC2(CCN(CC(=O)N(C)C)CC2)c2ccccc21.O=C(O)C(F)(F)F (centres unmarked)
Percent Effect: 8.509%

SMILES: CC(NC(=O)Cn1cccn1)c1ccc2c(c1)OCCO2 (centres unmarked)
Percent Effect: -20.17%

SMILES: O=C(O)C(F)(F)F.[H][C@@]12COC[C@H](C(=O)Nc3cnccn3)[C@]1([H])CN(C1CCCC1)C2
Percent Effect: -23.45%

SMILES: COc1cccc(C2CC(=O)Nc3nc(N4CCOCC4)sc32)c1OC (centres unmarked)
Percent Effect: -5.75%

SMILES: COCC(=O)N1CCC(c2cc(C(F)(F)F)n3ccnc3n2)CC1
Percent Effect: -8.245%

SMILES: CCC1=NN2C(=N)/C(=C\c3cccn3-c3ccc(Cl)cc3)C(=O)N=C2S1
Percent Effect: 0.08953%

SMILES: CCc1noc(CN(C)Cc2cc3ccc(Cl)cc3[nH]c2=O)n1
Percent Effect: -6.615%

SMILES: Cc1sc2c(C3CCNCC3)nc(Nc3cccc(F)c3)n2c1C.Cl
Percent Effect: 63.64% and 42.54% and 49.37%

SMILES: CC(NC(=O)N1CCCC1)c1ccc(S(N)(=O)=O)cc1 (centres unmarked)
Percent Effect: 14.1%

SMILES: Cc1noc(C2(C)CCN(C(=O)C(C)C)CC2)n1
Percent Effect: -2.813%

SMILES: Cc1ncsc1C(=O)NCCOc1ncc(Cl)cc1Cl
Percent Effect: -6.539%

SMILES: COCCOc1ccccc1CNCc1c(C)nn(C)c1N(C)C
Percent Effect: -4.48%

SMILES: Cc1nc(=O)c2ccccc2n1C1=CCN(CC(=O)N2CCCC2)CC1
Percent Effect: -3.361%

SMILES: Cn1ccnc1-c1ccccc1C(=O)N1CCc2c(nc(N)[nH]c2=O)C1
Percent Effect: -2.617%

SMILES: Cc1ccc(C2CCCN2CC(=O)N(CCC#N)c2ccccc2)cc1 (centres unmarked)
Percent Effect: -15.7%

SMILES: CC(C)Nc1cc(-c2c[nH]nc2C2CCN(C(=O)C3CC3)C2)ccn1 (centres unmarked)
Percent Effect: 14.06%

SMILES: Cc1ccc(CNC(=O)NC2CCCN(c3ncccn3)C2)n1C (centres unmarked)
Percent Effect: 7.987%

SMILES: Cc1cc(C2CCCN2C(=O)NCc2c(C)cc(C)[nH]c2=O)on1 (centres unmarked)
Percent Effect: 4.052%

SMILES: COc1ccc(CNCC2CNc3cc(C)nn3C2)cn1 (centres unmarked)
Percent Effect: -2.152%

SMILES: Cc1csc(C2CCCCN2C(=O)c2c[nH]c(C)n2)n1 (centres unmarked)
Percent Effect: -4.535%

SMILES: COCCC(=O)N1CCCC(CCc2ccc(F)c(F)c2)C1 (centres unmarked)
Percent Effect: -29.5%

SMILES: CC(Cn1cccn1)NC(=O)NCc1ccnc(OC2CCCC2)c1 (centres unmarked)
Percent Effect: 11.9%

SMILES: [H][C@@]12COC[C@@H](CC(=O)NCCOC)[C@]1([H])CN(Cc1cccnc1)C2
Percent Effect: -4.538%

SMILES: CC(C)c1cc(CN2CCC(CC(=O)O)CC2)no1
Percent Effect: -4.306%

3 of the entries, repeated:

SMILES	Percent Effect
COc1c(CNCc2ccc(CN(C)C)cc2)c(C(C)C)nn1C	-4.452%
CN(C)S(=O)(=O)CCCN1CCCC1c1noc(C2CC2)n1 (centres unmarked)	13.97%
CCCC(=O)N1CCC([C@@H]2C[C@H](C(F)(F)F)n3nc(C)cc3N2)CC1	5.275%